Laboratory results from the supplement of paper PMC12823440, “Inhibitors supercharge kinase turnover through native proteolytic circuits” (Nature, 2025).
Structures can show the parent of a compound that is named as a salt. This is one part of the list. The calls rarely recur for the same compound in another form.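 Kinases, fused to nanoluciferase, were expressed in K562 cells; luminescence was measured every 4 h from 2 to 18 h as percent of control (DMSO = 100%, positive control = 0%). A time point is decreased if signal falls significantly (2 sigma). Hits were called by the authors by a rule that is not shown; the count of time points alone does not decide it.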

Chains of the proteins cited; added tags and fusions are not shown. Lines headed by an entry give the natural chain unless they say otherwise; changes in a name come on top.
UniProt P00519, whole entry: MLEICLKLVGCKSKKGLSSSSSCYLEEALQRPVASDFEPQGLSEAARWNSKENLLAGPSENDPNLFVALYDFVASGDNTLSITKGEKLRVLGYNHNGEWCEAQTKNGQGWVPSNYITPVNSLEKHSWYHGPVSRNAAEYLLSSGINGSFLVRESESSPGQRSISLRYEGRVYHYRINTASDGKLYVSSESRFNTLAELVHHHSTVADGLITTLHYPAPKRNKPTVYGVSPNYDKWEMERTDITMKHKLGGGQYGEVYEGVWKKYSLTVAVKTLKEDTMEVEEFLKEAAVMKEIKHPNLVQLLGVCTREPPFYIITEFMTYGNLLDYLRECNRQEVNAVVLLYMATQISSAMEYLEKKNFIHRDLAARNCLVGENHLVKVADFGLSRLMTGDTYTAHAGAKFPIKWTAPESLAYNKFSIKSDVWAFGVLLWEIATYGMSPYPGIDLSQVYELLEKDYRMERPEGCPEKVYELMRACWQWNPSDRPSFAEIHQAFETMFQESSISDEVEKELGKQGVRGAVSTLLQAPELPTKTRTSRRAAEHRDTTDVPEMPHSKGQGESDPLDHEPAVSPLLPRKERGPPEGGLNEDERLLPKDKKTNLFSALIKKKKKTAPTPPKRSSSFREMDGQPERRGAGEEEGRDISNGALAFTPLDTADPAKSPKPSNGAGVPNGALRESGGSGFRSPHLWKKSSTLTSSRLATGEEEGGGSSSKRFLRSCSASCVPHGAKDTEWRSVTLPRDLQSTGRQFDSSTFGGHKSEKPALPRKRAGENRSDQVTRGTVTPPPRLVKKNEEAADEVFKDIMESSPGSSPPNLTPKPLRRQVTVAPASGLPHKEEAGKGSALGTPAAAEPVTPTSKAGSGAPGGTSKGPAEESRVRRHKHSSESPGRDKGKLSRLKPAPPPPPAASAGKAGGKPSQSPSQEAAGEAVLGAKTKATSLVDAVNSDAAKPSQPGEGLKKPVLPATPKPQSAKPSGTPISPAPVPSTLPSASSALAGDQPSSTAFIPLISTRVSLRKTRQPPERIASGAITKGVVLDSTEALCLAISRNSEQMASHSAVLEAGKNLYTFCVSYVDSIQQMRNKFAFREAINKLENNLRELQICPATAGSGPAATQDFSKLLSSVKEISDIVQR
UniProt P31749: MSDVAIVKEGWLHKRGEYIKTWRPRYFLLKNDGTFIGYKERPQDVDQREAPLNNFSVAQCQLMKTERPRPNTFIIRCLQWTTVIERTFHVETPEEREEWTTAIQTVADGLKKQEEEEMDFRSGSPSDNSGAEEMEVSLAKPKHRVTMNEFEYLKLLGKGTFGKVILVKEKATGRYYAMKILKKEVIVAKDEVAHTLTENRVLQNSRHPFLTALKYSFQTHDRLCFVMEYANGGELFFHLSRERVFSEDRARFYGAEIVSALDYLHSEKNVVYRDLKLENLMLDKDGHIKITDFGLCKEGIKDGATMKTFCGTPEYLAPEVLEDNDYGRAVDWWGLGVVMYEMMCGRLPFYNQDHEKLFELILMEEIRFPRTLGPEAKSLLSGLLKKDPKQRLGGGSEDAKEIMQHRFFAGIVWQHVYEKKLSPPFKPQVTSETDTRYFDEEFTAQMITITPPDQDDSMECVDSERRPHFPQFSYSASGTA
UniProt Q9UM73: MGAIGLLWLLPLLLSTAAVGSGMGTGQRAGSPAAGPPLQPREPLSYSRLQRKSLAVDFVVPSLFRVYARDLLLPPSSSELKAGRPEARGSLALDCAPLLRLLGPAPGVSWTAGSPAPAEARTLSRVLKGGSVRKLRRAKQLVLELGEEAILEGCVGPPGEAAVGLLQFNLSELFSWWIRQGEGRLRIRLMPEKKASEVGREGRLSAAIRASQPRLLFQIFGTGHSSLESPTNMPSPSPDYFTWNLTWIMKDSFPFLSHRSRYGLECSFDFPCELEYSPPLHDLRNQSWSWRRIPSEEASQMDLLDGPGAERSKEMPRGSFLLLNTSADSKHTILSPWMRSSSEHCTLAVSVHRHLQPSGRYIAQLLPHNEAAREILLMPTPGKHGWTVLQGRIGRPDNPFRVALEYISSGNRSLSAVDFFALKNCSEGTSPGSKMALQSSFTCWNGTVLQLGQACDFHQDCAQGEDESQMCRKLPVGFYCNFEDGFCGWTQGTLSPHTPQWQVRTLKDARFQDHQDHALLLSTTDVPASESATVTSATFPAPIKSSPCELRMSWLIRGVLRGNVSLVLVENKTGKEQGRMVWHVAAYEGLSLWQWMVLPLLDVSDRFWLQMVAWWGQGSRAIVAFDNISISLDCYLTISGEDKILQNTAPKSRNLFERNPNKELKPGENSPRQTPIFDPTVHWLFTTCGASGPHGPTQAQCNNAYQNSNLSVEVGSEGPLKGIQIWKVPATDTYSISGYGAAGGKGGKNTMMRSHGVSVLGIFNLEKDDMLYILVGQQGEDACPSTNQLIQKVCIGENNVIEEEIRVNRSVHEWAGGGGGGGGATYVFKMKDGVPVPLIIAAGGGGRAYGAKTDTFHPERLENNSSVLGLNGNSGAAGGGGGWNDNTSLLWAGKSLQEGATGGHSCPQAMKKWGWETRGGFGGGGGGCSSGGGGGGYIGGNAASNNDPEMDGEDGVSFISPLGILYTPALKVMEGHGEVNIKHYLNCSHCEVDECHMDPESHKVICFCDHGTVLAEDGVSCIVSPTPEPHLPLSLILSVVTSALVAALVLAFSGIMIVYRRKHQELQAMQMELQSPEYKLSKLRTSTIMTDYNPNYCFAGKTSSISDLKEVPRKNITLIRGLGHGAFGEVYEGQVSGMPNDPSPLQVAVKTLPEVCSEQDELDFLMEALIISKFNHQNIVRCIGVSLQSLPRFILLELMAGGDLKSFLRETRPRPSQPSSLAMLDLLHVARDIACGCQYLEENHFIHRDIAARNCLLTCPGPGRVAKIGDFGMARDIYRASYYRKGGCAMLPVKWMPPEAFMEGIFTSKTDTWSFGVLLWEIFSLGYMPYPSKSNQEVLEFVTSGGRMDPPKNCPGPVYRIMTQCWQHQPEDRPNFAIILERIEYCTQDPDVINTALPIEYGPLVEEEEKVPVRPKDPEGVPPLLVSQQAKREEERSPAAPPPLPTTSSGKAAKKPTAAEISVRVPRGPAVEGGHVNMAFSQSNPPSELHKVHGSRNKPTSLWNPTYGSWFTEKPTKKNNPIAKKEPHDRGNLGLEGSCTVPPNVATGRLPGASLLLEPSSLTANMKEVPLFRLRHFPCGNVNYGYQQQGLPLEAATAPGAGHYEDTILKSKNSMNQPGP
UniProt P10398: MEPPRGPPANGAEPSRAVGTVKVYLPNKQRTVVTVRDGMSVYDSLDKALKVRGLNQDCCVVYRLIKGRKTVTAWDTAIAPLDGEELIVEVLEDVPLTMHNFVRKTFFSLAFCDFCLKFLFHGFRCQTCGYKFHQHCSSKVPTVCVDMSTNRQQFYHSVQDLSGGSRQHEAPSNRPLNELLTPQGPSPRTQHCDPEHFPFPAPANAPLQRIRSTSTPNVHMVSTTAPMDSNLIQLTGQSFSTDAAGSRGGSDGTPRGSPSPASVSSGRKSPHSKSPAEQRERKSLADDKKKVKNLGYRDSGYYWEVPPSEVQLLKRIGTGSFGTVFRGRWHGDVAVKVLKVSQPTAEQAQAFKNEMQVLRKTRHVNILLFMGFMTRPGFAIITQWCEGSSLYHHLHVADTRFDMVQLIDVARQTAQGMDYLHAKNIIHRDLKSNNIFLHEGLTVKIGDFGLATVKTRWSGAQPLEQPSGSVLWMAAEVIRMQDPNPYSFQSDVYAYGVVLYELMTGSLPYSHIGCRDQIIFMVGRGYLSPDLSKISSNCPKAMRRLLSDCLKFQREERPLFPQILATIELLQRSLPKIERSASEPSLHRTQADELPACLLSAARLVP
UniProt O14965: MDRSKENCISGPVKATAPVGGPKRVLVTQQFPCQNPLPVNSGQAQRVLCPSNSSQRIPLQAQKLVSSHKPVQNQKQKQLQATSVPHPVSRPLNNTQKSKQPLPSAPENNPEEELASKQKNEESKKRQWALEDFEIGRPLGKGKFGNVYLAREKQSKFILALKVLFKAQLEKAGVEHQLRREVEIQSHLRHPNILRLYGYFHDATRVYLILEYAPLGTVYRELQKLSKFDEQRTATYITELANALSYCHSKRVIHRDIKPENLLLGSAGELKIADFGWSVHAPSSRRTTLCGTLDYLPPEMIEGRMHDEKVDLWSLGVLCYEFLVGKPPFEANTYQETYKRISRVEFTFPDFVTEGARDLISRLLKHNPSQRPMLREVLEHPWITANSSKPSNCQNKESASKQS
UniProt Q9UQB9: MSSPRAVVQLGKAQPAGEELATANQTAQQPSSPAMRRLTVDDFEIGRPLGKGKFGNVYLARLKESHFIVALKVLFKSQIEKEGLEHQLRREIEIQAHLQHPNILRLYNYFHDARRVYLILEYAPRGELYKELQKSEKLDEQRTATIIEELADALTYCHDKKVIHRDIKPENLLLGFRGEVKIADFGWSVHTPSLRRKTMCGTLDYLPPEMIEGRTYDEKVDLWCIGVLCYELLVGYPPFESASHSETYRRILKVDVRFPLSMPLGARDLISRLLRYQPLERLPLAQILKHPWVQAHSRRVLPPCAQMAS
UniProt P51451: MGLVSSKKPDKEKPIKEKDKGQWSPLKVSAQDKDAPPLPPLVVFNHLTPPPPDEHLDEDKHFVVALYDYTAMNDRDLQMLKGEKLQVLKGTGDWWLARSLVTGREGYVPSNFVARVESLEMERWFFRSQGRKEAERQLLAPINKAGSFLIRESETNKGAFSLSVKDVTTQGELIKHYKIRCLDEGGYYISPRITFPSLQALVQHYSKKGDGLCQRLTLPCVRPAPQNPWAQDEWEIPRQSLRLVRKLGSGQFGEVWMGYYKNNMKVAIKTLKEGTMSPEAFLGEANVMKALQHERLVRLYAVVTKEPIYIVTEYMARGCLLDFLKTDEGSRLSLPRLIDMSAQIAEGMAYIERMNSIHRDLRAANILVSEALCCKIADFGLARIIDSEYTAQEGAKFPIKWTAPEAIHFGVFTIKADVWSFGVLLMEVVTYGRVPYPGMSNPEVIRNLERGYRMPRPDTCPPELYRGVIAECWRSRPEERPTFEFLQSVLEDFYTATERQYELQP
UniProt P51813: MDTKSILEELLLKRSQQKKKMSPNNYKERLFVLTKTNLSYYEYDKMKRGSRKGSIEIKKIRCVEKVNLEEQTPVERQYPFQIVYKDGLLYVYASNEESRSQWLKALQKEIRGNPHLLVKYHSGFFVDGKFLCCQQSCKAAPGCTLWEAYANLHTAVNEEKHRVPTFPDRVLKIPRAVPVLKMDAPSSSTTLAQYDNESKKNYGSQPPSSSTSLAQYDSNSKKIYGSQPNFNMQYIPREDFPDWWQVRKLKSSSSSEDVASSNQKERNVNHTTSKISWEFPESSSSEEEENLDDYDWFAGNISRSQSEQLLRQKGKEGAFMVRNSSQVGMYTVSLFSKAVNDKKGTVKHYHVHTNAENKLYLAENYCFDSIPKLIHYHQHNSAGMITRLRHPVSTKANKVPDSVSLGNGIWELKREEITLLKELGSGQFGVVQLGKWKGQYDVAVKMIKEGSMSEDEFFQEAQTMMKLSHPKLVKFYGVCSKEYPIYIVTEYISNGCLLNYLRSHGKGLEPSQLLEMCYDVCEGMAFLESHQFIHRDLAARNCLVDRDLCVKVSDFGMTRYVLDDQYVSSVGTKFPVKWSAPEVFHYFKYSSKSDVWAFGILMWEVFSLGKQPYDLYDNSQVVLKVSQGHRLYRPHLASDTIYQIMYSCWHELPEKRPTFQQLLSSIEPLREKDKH
UniProt P15056, whole entry, looked up: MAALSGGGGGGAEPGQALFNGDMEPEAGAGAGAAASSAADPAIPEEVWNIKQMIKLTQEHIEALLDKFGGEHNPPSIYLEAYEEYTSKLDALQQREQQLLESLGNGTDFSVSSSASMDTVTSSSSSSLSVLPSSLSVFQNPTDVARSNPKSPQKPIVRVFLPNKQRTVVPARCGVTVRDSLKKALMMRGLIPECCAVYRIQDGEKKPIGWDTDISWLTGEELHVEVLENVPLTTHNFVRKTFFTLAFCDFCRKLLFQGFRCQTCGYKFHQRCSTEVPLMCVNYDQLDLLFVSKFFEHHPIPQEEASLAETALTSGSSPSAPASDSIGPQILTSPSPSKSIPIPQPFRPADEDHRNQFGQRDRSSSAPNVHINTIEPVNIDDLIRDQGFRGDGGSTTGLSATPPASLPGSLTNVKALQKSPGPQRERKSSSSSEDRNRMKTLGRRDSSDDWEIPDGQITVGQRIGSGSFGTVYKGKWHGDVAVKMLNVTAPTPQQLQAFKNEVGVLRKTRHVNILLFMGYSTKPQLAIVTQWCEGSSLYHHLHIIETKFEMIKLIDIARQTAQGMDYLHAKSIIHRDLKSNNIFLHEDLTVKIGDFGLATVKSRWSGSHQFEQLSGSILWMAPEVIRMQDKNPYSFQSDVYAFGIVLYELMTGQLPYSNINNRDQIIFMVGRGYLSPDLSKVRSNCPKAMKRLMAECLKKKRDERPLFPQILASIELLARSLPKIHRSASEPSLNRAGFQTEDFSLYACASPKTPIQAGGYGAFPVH

Tests used:
Assay in all cases: kinase-Nluc reporter destabilization hit call (1 = scored as downregulated) (binary); higher = compound decreases kinase abundance
Settings in all cases: K562; 2-18 h
ABL1 = ABL1 (UniProt P00519)
AKT1 = AKT1 (UniProt P31749)
ALK = ALK (UniProt Q9UM73)
ARAF = ARAF (UniProt P10398)
AURKA = AURKA (UniProt O14965)
AURKB = AURKB (UniProt Q96GD4)
AURKC = AURKC (UniProt Q9UQB9)
BLK = BLK (UniProt P51451)
BMX = BMX (UniProt P51813)
BRAF = BRAF (UniProt P15056)

Measured: kinase-Nluc reporter destabilization hit call

CO[C@H]1C[C@@H]2CC[C@@H](C)[C@@](O)(O2)C(=O)C(=O)N2CCCC[C@H]2C(=O)O[C@H]([C@H](C)C[C@@H]2CC[C@@H](O)[C@H](OC)C2)CC(=O)[C@H](C)/C=C(\C)[C@@H](O)[C@@H](OC)C(=O)[C@H](C)C[C@H](C)/C=C/C=C/C=C/1C [Rapamycin] (10 µM)
inactive: ABL1 = 0 | AKT1 = 0 | ALK 0 | ARAF 0 | AURKA 0 | AURKB 0 | AURKC 0 | BLK 0 | BMX 0 | BRAF 0

COc1cc(N2CCN(C)CC2)ccc1Nc1ncc2c(n1)N(C1CCC1)C(=O)N(c1c(C)cccc1C)C2 (2.5 µM)
inactive: ABL1 = 0 | AKT1 = 0 | ALK 0 | ARAF 0 | AURKA 0 | AURKB 0 | AURKC 0 | BLK 0 | BMX 0 | BRAF 0

COc1cc2ncnc(Nc3cccc(Cl)c3)c2cc1OC (10 µM)
inactive: ABL1 = 0 | AKT1 = 0 | ALK 0 | ARAF 0 | AURKA 0 | AURKB 0 | AURKC 0 | BLK 0 | BMX 0 | BRAF 0

OC[C@H]1O[C@@H](Oc2cc3c(O)cc(O)cc3[o+]c2-c2cc(O)c(O)c(O)c2)[C@H](O)[C@@H](O)[C@@H]1O [Delphinidin 3-glucoside (chloride)] (10 µM)
inactive: ABL1 = 0 | AKT1 = 0 | ALK 0 | ARAF 0 | AURKA 0 | AURKB 0 | AURKC 0 | BLK 0 | BMX 0 | BRAF 0

CC(=O)c1c(C)c2cnc(Nc3ccc(N4CCN(CCCCNC(=O)COc5cccc6c5C(=O)N(C5CCC(=O)NC5=O)C6=O)CC4)cn3)nc2n(C2CCCC2)c1=O (stereo not given) (10 µM)
inactive: ABL1 = 0 | AKT1 = 0 | ALK 0 | ARAF 0 | AURKA 0 | AURKB 0 | AURKC 0 | BLK 0 | BMX 0 | BRAF 0

COc1cc2ncn(-c3cc(OCc4ccccc4S(C)(=O)=O)c(C#N)s3)c2cc1OC (10 µM)
inactive: ABL1 = 0 | AKT1 = 0 | ALK 0 | ARAF 0 | AURKA 0 | AURKB 0 | AURKC 0 | BLK 0 | BMX 0 | BRAF 0

Cc1cc(O)c(C(C)C)cc1N=O [Poloxime] (10 µM)
inactive: ABL1 = 0 | AKT1 = 0 | ALK 0 | ARAF 0 | AURKA 0 | AURKB 0 | AURKC 0 | BLK 0 | BMX 0 | BRAF 0

Cc1c(CN2CCN(S(C)(=O)=O)CC2)sc2c(N3CCOCC3)nc(-c3cnc(N)nc3)nc12 (2.5 µM)
inactive: ABL1 = 0 | AKT1 = 0 | ALK 0 | ARAF 0 | AURKA 0 | AURKB 0 | AURKC 0 | BLK 0 | BMX 0 | BRAF 0

CNC(=O)c1ccc(-c2cnc3cnc(C(=O)N(C)c4ccc(Cl)cc4)cn23)cc1 (2.5 µM)
inactive: ABL1 = 0 | AKT1 = 0 | ALK 0 | ARAF 0 | AURKA 0 | AURKB 0 | AURKC 0 | BLK 0 | BMX 0 | BRAF 0

NCCN1CCN(C/C=C/C(=O)N2CCC[C@@H](n3nc(-c4ccc(Oc5ccccc5)cc4)c4c(N)ncnc43)C2)CC1 [Ibrutinib-MPEA] (10 µM)
inactive: ABL1 = 0 | AKT1 = 0 | ALK 0 | ARAF 0 | AURKA 0 | AURKB 0 | AURKC 0 | BLK 0 | BMX 0 | BRAF 0

O=C1Nc2nc(-c3c(O)cccc3OCC3CC3)cc([C@@H]3CCCNC3)c2CO1 [Bay 65-1942 (hydrochloride)] (10 µM)
inactive: ABL1 = 0 | AKT1 = 0 | ALK 0 | ARAF 0 | AURKA 0 | AURKB 0 | AURKC 0 | BLK 0 | BMX 0 | BRAF 0

CC(C)=CC[C@H](O)C1=CC(=O)c2c(O)ccc(O)c2C1=O [(-)-Alkannin] (2.5 µM)
inactive: ABL1 = 0 | AKT1 = 0 | ALK 0 | ARAF 0 | AURKA 0 | AURKB 0 | AURKC 0 | BLK 0 | BMX 0 | BRAF 0

O=C(NCCCNC(=O)Nc1cccc(C2=NCCN2)c1)Nc1cccc(C2=NCCN2)c1 [p32 Inhibitor M36] (10 µM)
inactive: ABL1 = 0 | AKT1 = 0 | ALK 0 | ARAF 0 | AURKA 0 | AURKB 0 | AURKC 0 | BLK 0 | BMX 0 | BRAF 0

C/C(=C1/C(=O)Nc2ccc(NC(N)=O)cc21)c1ccc[nH]1 (10 µM)
inactive: ABL1 = 0 | AKT1 = 0 | ALK 0 | ARAF 0 | AURKA 0 | AURKB 0 | AURKC 0 | BLK 0 | BMX 0 | BRAF 0

Cc1c(NC(=O)OC[C@@H]2COCCN2)cn2ncnc(Nc3ccc4c(cnn4Cc4cccc(F)c4)c3)c12 (10 µM)
inactive: ABL1 = 0 | AKT1 = 0 | ALK 0 | ARAF 0 | AURKA 0 | AURKB 0 | AURKC 0 | BLK 0 | BMX 0 | BRAF 0

COc1ccc(C(=O)Nc2sc3c(c2C(N)=O)CCCC3)cc1OC (10 µM)
inactive: ABL1 = 0 | AKT1 = 0 | ALK 0 | ARAF 0 | AURKA 0 | AURKB 0 | AURKC 0 | BLK 0 | BMX 0 | BRAF 0

CN(CCNc1ccc2ncc(-c3ccc(C(N)=O)cc3)n2n1)C(=O)OC(C)(C)C (10 µM)
inactive: ABL1 = 0 | AKT1 = 0 | ALK 0 | ARAF 0 | AURKA 0 | AURKB 0 | AURKC 0 | BLK 0 | BMX 0 | BRAF 0

COc1ncc(-c2nc(N3CCOCC3)nc3c(CN4CCC(C(C)(C)O)CC4)cc(F)cc23)cc1NS(C)(=O)=O [Linperlisib] (10 µM)
inactive: ABL1 = 0 | AKT1 = 0 | ALK 0 | ARAF 0 | AURKA 0 | AURKB 0 | AURKC 0 | BLK 0 | BMX 0 | BRAF 0

Two entries drawn at random from those above, as already listed:
CN(CCNc1ccc2ncc(-c3ccc(C(N)=O)cc3)n2n1)C(=O)OC(C)(C)C (10 µM)
inactive: ABL1 = 0 | AKT1 = 0 | ALK 0 | ARAF 0 | AURKA 0 | AURKB 0 | AURKC 0 | BLK 0 | BMX 0 | BRAF 0

COc1ncc(-c2nc(N3CCOCC3)nc3c(CN4CCC(C(C)(C)O)CC4)cc(F)cc23)cc1NS(C)(=O)=O [Linperlisib] (10 µM)
inactive: ABL1 = 0 | AKT1 = 0 | ALK 0 | ARAF 0 | AURKA 0 | AURKB 0 | AURKC 0 | BLK 0 | BMX 0 | BRAF 0

(continued)

COc1cccc(-n2c(=O)[nH]c3cc(Cl)n(-c4ccc(-c5cccc(OC)c5O)cc4)c3c2=O)c1 (2.5 µM)
inactive: ABL1 = 0 | AKT1 = 0 | ALK 0 | ARAF 0 | AURKA 0 | AURKB 0 | AURKC 0 | BLK 0 | BMX 0 | BRAF 0

CC(C)c1cnc(-c2cc(Cl)ccc2F)cc1Nc1ccncc1C(=O)NC(CO)CO (2.5 µM)
inactive: ABL1 = 0 | AKT1 = 0 | ALK 0 | ARAF 0 | AURKA 0 | AURKB 0 | AURKC 0 | BLK 0 | BMX 0 | BRAF 0

CC1CCc2nc(N)c(C#N)c(-c3cccnc3)c2C1 (stereo not given) (10 µM)
inactive: ABL1 = 0 | AKT1 = 0 | ALK 0 | ARAF 0 | AURKA 0 | AURKB 0 | AURKC 0 | BLK 0 | BMX 0 | BRAF 0

CCN(CC)S(=O)(=O)c1ccc(OC)c(N2CCN(C(=O)c3ccc(F)cc3C(F)(F)F)CC2)c1 (10 µM)
inactive: ABL1 = 0 | AKT1 = 0 | ALK 0 | ARAF 0 | AURKA 0 | AURKB 0 | AURKC 0 | BLK 0 | BMX 0 | BRAF 0

O=C1c2ccc(Nc3ccc(F)cc3F)cc2CCc2ccc(OC[C@H](O)CO)cc21 [Skepinone-L] (2.5 µM)
inactive: ABL1 = 0 | AKT1 = 0 | ALK 0 | ARAF 0 | AURKA 0 | AURKB 0 | AURKC 0 | BLK 0 | BMX 0 | BRAF 0

Nc1ncnc2c1c(-c1ccc(Oc3ccccc3)cc1)nn2C1CCCNC1 (racemic) (2.5 µM)
inactive: ABL1 = 0 | AKT1 = 0 | ALK 0 | ARAF 0 | AURKA 0 | AURKB 0 | AURKC 0 | BLK 0 | BMX 0 | BRAF 0

Nc1ncnc2c1c(-c1ccc(Oc3ccccc3)cc1)nn2C1CCNCC1 [N-piperidine Ibrutinib (hydrochloride)] (10 µM)
inactive: ABL1 = 0 | AKT1 = 0 | ALK 0 | ARAF 0 | AURKA 0 | AURKB 0 | AURKC 0 | BLK 0 | BMX 0 | BRAF 0

Fc1ccc(-c2nc(-c3ccccc3F)[nH]c2-c2ccncc2)cc1 (2.5 µM)
inactive: ABL1 = 0 | AKT1 = 0 | ALK 0 | ARAF 0 | AURKA 0 | AURKB 0 | AURKC 0 | BLK 0 | BMX 0 | BRAF 0

Nc1cc(Nc2ccc(S(N)(=O)=O)cc2)ncn1 (10 µM)
inactive: ABL1 = 0 | AKT1 = 0 | ALK 0 | ARAF 0 | AURKA 0 | AURKB 0 | AURKC 0 | BLK 0 | BMX 0 | BRAF 0

Cn1nccc1Nc1nccc(-c2cc3c(s2)C(C)(C)N(CCN2CCOCC2)C3=O)n1 (10 µM)
inactive: ABL1 = 0 | AKT1 = 0 | ALK 0 | ARAF 0 | AURKA 0 | AURKB 0 | AURKC 0 | BLK 0 | BMX 0 | BRAF 0

CCn1c(C(=O)N(C2CC2)C2CC2)cc2c3c(ncn3C)c(Nc3cc(C)n(C)n3)nc21 (10 µM)
inactive: ABL1 = 0 | AKT1 = 0 | ALK 0 | ARAF 0 | AURKA 0 | AURKB 0 | AURKC 0 | BLK 0 | BMX 0 | BRAF 0
